The record followed here is article PMC10507666 (The Journal of Organic Chemistry, 2023).

Strings that start with PEPTIDE1 are HELM notation: dots part the residues, brackets hold end groups and non-standard residues. For part of these data: The same purity stands for every peptide and may come from a single statement.

Data set [1] is described as follows: general procedure: Fmoc solid-phase peptide synthesis; HATU/DIPEA. The following applies: whole synthesis, λ = 210 nm, TFA salt.
Data set [2] can be described thus: Fmoc solid-phase peptide synthesis; Rink amide AM resin; HATU/DIPEA. The settings on record: whole synthesis, TFA salt.
Data set [3] in a line: general procedure: Fmoc solid-phase peptide synthesis; Rink amide AM resin; HATU/DIPEA. The following applies: whole synthesis, scale 0.256 mmol, TFA salt.

In the case of PEPTIDE1{[CF3S-Tyr].P.W.F.[am]}$$$$V2.0, the “final HPLC purity” value in data set [1] is on record as over 99%. Moreover, in data set [2] (scale 0.192 mmol), the isolated mass is 29.8 mg and the isolated yield was 19%.
For the substance PEPTIDE1{Y.P.[CF3S-Trp].F.[am]}$$$$V2.0, the “final HPLC purity” value in data set [1] is listed as over 99%. Moreover, in data set [2] (scale 0.128 mmol), the isolated mass came to 27.1 mg and the isolated yield was found to be 26%.
Consider PEPTIDE1{Y.P.W.F.[am]}$$$$V2.0, for which, in data set [3], the isolated mass was found to be 44.6 mg and the isolated yield worked out at 24%. Moreover, in data set [1], the “final HPLC purity” value is over 99%.
